The list does not hold the whole screen: it is rich in T/C values a quarter to a half above the control, in often repeated tests (any T/C) and in doses without a T/C. Other doses and runs of a compound stand elsewhere. T/C gives the treated animals as a percentage of the vehicle group. Some entries give survivors of the animals treated and no T/C: the source files T/C as zero there, which appears to mark a toxic dose or a test without result, not a measured value. Some doses without a T/C left all or most animals alive at the check, yet need not have been tolerated: survival well below the control is almost never listed, so the zero probably covers shortened survival too. Survivors were counted at the toxicity check, usually on the fifth day, unless a day is given; later deaths do not show. Schedule codes are those of the source, taken here to give the interval after Q, in days (D) or hours (H), and the number of doses after X. Some entries hold several experiments; the results are listed from low to high. For survival time, this PubChem deposit counts one and a half times the control or more as active, and values a quarter to a half above the control carry no call in these data; other NCI protocols may use other cut-offs. Some T/C values are followed by the survivors on the day toxicity was checked, most often the fifth; where none is given, no animal had died by that day. Starred links: 1 amine or outer side, 2 acyl side, 3 side chain; linkers in the order of their positions; H or OH if unused. Positions of bridges follow the written chain, without caps; N, C: chain ends. Non-standard residues stand in square brackets, D forms with d. Residues, ends and D or L forms follow the SMILES beside them. Chains are numbered I, II in the order given. Actinocin(9to1) = Cc1c2oc3c(C)ccc(C(=O)[*:1])c3nc-2c(C(=O)[*:2])c(N)c1=O; aThr = C[C@H](O)[C@H](N)C(=O)O; NMeV = CN[C@H](C(=O)O)C(C)C; Sar = CNCC(=O)O

In the assay the test system is BDF1 mice, P815 leukemia ip, survival T/C. In words: NCI In Vivo Anticancer Drug Screen. Data for tumor model P815 Mast Cell Leukemia (Ascitic) (intraperitoneal) in B6D2F1 (BDF1) mice. The note with it: higher T/C = longer survival. How it is done: The antitumor activity of compounds was measured in mice bearing transplantable tumors. Survival or tumor size were measured and the results are expressed as the measurement made in the treated group (T) divided by the measurement made in the vehicle treated control group (C). The tumor model used in this assay is P815 Mast Cell Leukemia (Ascitic) (intraperitoneal) in B6D2F1 (BDF1) mice

Setting [1] is: T/C endpoint: survival time, mean or median, dose: 6.0 mg/kg/injection, schedule: Q01DX015 (ip), vehicle: carboxymethylcellulose (CMC).
[2] abbreviates: T/C endpoint: survival time, mean or median, dose: 25.0 mg/kg/injection, schedule: Q01DX010 (ip), vehicle: saline.
[3] abbreviates: T/C endpoint: survival time, mean or median, dose: 0.5 mg/kg/injection, schedule: Q01DX010 (ip), vehicle: other.
Setting [4] is: T/C endpoint: survival time, mean or median, dose: 1.0 mg/kg/injection, schedule: Q01DX010 (ip), vehicle: other.
Setting [5] is: T/C endpoint: survival time, mean or median, dose: 2.0 mg/kg/injection, schedule: Q01DX010 (ip), vehicle: other.
[6] abbreviates: T/C endpoint: survival time, mean or median, dose: 4.0 mg/kg/injection, schedule: Q01DX010 (ip), vehicle: other.
Setting [7] is: T/C endpoint: survival time, mean or median, dose: 8.0 mg/kg/injection, schedule: Q01DX010 (ip), vehicle: other.
Setting [8] is: T/C endpoint: survival time, mean or median, dose: 80.0 mg/kg/injection, schedule: Q01DX010 (ip), vehicle: saline.
Setting [9] is: T/C endpoint: survival time, mean or median, dose: 2.5 mg/kg/injection, schedule: Q01DX010 (ip), vehicle: saline.
[10] abbreviates: T/C endpoint: survival time, mean or median, dose: 5.0 mg/kg/injection, schedule: Q01DX010 (ip), vehicle: saline.
Where [11] appears, read: T/C endpoint: survival time, mean or median, dose: 16.0 mg/kg/injection, schedule: Q01DX010 (ip), vehicle: other.
Where [12] appears, read: T/C endpoint: survival time, mean or median, dose: 250.0 mg/kg/injection, schedule: Q01DX010 (ip), vehicle: saline.

Take `O=C(Nc1ccc(C2=NCCN2)cc1)c1ccc(NC(=O)c2ccc(C3=NCCN3)cc2)cc1`: the T/C by setting is: (T/C endpoint: survival time, mean or median, dose: 40.0 mg/kg/injection, schedule: Q01DX010 (ip), vehicle: saline) 137 % of control; (T/C endpoint: survival time, mean or median, dose: 60.0 mg/kg/injection, schedule: Q01DX010 (ip), vehicle: saline) 137 % of control.
Regarding `N[C@@H](Cc1ccc(N(CCCl)CCCl)cc1)C(=O)O`, the survivor count is, setting by setting: (T/C endpoint: survival time, mean or median, dose: 4.0 mg/kg/injection, schedule: Q01DX015 (ip), vehicle: carboxymethylcellulose (CMC)) 10 of 10; under setting [1], 10 of 10; (T/C endpoint: survival time, mean or median, dose: 8.0 mg/kg/injection, schedule: Q01DX015 (ip), vehicle: carboxymethylcellulose (CMC)) 10 of 10; (T/C endpoint: survival time, mean or median, dose: 12.0 mg/kg/injection, schedule: Q01DX015 (ip), vehicle: carboxymethylcellulose (CMC)) 10 of 10. For the same molecule, the T/C under setting [1] was 135 % of control.
For the molecule `O=NN(CCCl)C(=O)NCCCl`, the T/C (T/C endpoint: survival time, mean or median, dose: 12.5 mg/kg/injection, schedule: Q01DX010 (ip), vehicle: saline) was 145 % of control. Moreover, the survivor count runs as follows: under setting [2], 6 of 6; (T/C endpoint: survival time, mean or median, dose: 50.0 mg/kg/injection, schedule: Q01DX010 (ip), vehicle: saline) 5 of 6 and 6 of 6.
Regarding `Nc1nc(SCc2ccccn2)c2[nH]cnc2n1`, the survivor count by setting is: (T/C endpoint: survival time, mean or median, dose: 12.5 mg/kg/injection, schedule: Q01DX015 (ip), vehicle: carboxymethylcellulose (CMC)) 10 of 10; (T/C endpoint: survival time, mean or median, dose: 25.0 mg/kg/injection, schedule: Q01DX015 (ip), vehicle: carboxymethylcellulose (CMC)) 10 of 10; (T/C endpoint: survival time, mean or median, dose: 50.0 mg/kg/injection, schedule: Q01DX015 (ip), vehicle: carboxymethylcellulose (CMC)) 10 of 10; (T/C endpoint: survival time, mean or median, dose: 100.0 mg/kg/injection, schedule: Q01DX015 (ip), vehicle: carboxymethylcellulose (CMC)) 10 of 10.
For `Cc1c2oc3c(C)ccc(C(=O)N[C@@H]4C(=O)N[C@H](C(C)C)C(=O)N5CCC[C@H]5C(=O)N(C)CC(=O)N(C)[C@@H](C(C)C)C(=O)O[C@H]4C)c3nc-2c(C(=O)N[C@@H]2C(=O)N[C@H](C(C)C)C(=O)N3CCC[C@H]3C(=O)N(C)CC(=O)N(C)[C@@H](C(C)C)C(=O)O[C@H]2C)c(N)c1=O` (I: [aThr][dV]P[Sar][NMeV] / II: [aThr][dV]P[Sar][NMeV]; ester I:1-I:C, II:1-II:C; linker I:N-II:N via Actinocin(9to1)), the T/C reads like this: (T/C endpoint: median survival time, dose: 108.0 micrograms/kg/injection, schedule: Q04DX003 (ip), vehicle: saline + alcohol) 131 % of control; (T/C endpoint: median survival time, dose: 216.0 micrograms/kg/injection, schedule: Q01DX001 (ip), vehicle: saline + alcohol) 127 % of control; (T/C endpoint: median survival time, dose: 360.0 micrograms/kg/injection, schedule: Q01DX001 (ip), vehicle: saline + alcohol) 127 % of control; (T/C endpoint: median survival time, dose: 600.0 micrograms/kg/injection, schedule: Q01DX001 (ip), vehicle: saline + alcohol) 125 % of control. Besides, the survivor count (T/C endpoint: median survival time, dose: 1000.0 micrograms/kg/injection, schedule: Q01DX001 (ip), vehicle: saline + alcohol) is 5 of 8.
Turning to `CN=C(NC)c1ccc(NC(=O)Nc2ccc(NC(=O)Nc3ccc(C(=NC)NC)cc3)cc2)cc1`, the survivor count runs as follows: (T/C endpoint: survival time, mean or median, dose: 30.0 mg/kg/injection, schedule: Q01DX010 (ip), vehicle: saline) 1 of 6; (T/C endpoint: survival time, mean or median, dose: 45.0 mg/kg/injection, schedule: Q01DX010 (ip), vehicle: saline) 0 of 6.
`O=C(Nc1ccc(C2=NCCCN2)cc1)c1ccc(C(=O)Nc2ccc(C3=NCCCN3)cc2)cc1`: the T/C is, setting by setting: under setting [3], 100, 105, 108 % of control; under setting [4], 113, 117, 118 [5 of 6 alive], 142 % of control; under setting [5], 169 [5 of 6 alive], 173 [5 of 6 alive], 180, 207 % of control; under setting [6], 90 % of control [4 of 6 alive]. The survivor count by setting is: under setting [3], 6 of 6; under setting [6], 6 of 6; under setting [7], 5 of 6 and 6 of 6.
On to `CC(=O)OCC1OC(n2cnc3c(=S)nc(N)[nH]c32)C(OC(C)=O)C1OC(C)=O` (stereo unspecified), for which the survivor count is on record as 10 of 10 (T/C endpoint: survival time, mean or median, dose: 12.5 mg/kg/injection, schedule: Q01DX015 (ip), vehicle: other); 10 of 10 (T/C endpoint: survival time, mean or median, dose: 25.0 mg/kg/injection, schedule: Q01DX015 (ip), vehicle: other); 10 of 10 (T/C endpoint: survival time, mean or median, dose: 50.0 mg/kg/injection, schedule: Q01DX015 (ip), vehicle: other); 10 of 10 (T/C endpoint: survival time, mean or median, dose: 100.0 mg/kg/injection, schedule: Q01DX015 (ip), vehicle: other).
As to `CCOC(=O)c1[nH]c2ccccc2c1CN(CCCl)CCCl`, the survivor count under setting [8] is 0 of 6.
On to `O=C(O)CCCc1ccc(N(CCCl)CCCl)cc1`, for which the survivor count under setting [2] is listed as 0 of 6.
On to `Oc1cc(CN(CCCl)CCCl)c(O)cc1CN(CCCl)CCCl`, for which the T/C was 127 % of control under setting [9] and 138 % of control under setting [10].
For `NC(Cc1ccc(N(CCCl)CCCl)cc1)C(=O)O` (stereo unspecified), under setting [5], the T/C is 125 % of control. Besides, the survivor count under setting [11] is on record as 5 of 6.
Turning to `C(CC1CO1)C1CO1` (stereo unspecified), the T/C (T/C endpoint: survival time, mean or median, dose: 27.0 mg/kg/injection, schedule: Q01DX015 (ip), vehicle: saline) was 139 % of control. Moreover, the survivor count (T/C endpoint: survival time, mean or median, dose: 90.0 mg/kg/injection, schedule: Q01DX015 (ip), vehicle: saline) is reported as 6 of 10.
Consider `CN(C)CC(=O)c1ccc(O)c(O)c1`, for which the survivor count (T/C endpoint: survival time, mean or median, dose: 675.0 mg/kg/injection, schedule: Q01DX010 (ip), vehicle: saline) is reported as 6 of 6.
In the case of `CCCSc1ncnc2nc[nH]c12`, under setting [12], the survivor count was 0 of 6.
Take `O=C(Nc1ccc(C2=NCCCN2)cc1)c1ccc(NC(=O)c2ccc(C3=NCCCN3)cc2)cc1`: the T/C reads like this: under setting [4], 95, 100, 105, 111 % of control; under setting [5], 122, 126, 127, 132 % of control; under setting [6], 167 [5 of 6 alive], 173, 183, 242 % of control; under setting [7], 100, 116, 145 % of control; under setting [11], 504 % of control [4 of 6 alive]. The survivor count is 0 of 6 under setting [7]; 5 of 6 and 6 of 6 under setting [11].
As to `O=c1[nH]c(=O)n(C2CC(O)C(CO)O2)cc1F` (stereo unspecified), the T/C under setting [8] is 144 % of control.
As for `CC(=O)N(C)C`, under setting [12], the survivor count was 3 of 6.
`OCC1OC(n2cnc3c(Cl)ncnc32)C(O)C1O` (stereo unspecified): the survivor count (T/C endpoint: survival time, mean or median, dose: 500.0 mg/kg/injection, schedule: Q01DX010 (ip), vehicle: saline) is 6 of 6.
Turning to `N=[N+]=CC(=O)OCC(N)C(=O)O` (stereo unspecified), the survivor count under setting [2] was 6 of 6.
For the molecule `Nc1nc(=S)c2[nH]cnc2[nH]1`, the T/C was 127 and 140 % of control (T/C endpoint: survival time, mean or median, dose: 1.25 mg/kg/injection, schedule: Q01DX010 (ip), vehicle: saline); 127 % of control under setting [9]; 140 % of control under setting [10].
For the molecule `CCn1cnc2c(=S)nc[nH]c21`, the survivor count (T/C endpoint: survival time, mean or median, dose: 125.0 mg/kg/injection, schedule: Q01DX010 (ip), vehicle: saline) is 5 of 6 and 6 of 6.
As for `C[C@H](N)C(=O)N[C@@H]1[C@H]2C(=C(O)C[C@@H](O)[C@@H]2O)C(=O)O[C@@H]1C`, the T/C reads like this: (T/C endpoint: survival time, mean or median, dose: 300.0 mg/kg/injection, schedule: Q01DX010 (ip), vehicle: saline) 127 % of control; (T/C endpoint: survival time, mean or median, dose: 600.0 mg/kg/injection, schedule: Q01DX010 (ip), vehicle: saline) 144 % of control.
As to `Cc1nc(CON)cs1`, the survivor count (T/C endpoint: median survival time, dose: 200.0 mg/kg/injection, schedule: Q01DX015 (ip), vehicle: saline) is 7 of 10.
With `N#CCSc1ncnc2nc[nH]c12`, the survivor count (T/C endpoint: survival time, mean or median, dose: 120.0 mg/kg/injection, schedule: Q01DX010 (ip), vehicle: saline) is reported as 5 of 6.

These data come from PubChem BioAssay AID318 (DTP/NCI, 2004).
